Results on two molecules are retold here after article PMC12000689.

The target in one assay is T1, ATP9B (UniProt O43861).
T1 sequence: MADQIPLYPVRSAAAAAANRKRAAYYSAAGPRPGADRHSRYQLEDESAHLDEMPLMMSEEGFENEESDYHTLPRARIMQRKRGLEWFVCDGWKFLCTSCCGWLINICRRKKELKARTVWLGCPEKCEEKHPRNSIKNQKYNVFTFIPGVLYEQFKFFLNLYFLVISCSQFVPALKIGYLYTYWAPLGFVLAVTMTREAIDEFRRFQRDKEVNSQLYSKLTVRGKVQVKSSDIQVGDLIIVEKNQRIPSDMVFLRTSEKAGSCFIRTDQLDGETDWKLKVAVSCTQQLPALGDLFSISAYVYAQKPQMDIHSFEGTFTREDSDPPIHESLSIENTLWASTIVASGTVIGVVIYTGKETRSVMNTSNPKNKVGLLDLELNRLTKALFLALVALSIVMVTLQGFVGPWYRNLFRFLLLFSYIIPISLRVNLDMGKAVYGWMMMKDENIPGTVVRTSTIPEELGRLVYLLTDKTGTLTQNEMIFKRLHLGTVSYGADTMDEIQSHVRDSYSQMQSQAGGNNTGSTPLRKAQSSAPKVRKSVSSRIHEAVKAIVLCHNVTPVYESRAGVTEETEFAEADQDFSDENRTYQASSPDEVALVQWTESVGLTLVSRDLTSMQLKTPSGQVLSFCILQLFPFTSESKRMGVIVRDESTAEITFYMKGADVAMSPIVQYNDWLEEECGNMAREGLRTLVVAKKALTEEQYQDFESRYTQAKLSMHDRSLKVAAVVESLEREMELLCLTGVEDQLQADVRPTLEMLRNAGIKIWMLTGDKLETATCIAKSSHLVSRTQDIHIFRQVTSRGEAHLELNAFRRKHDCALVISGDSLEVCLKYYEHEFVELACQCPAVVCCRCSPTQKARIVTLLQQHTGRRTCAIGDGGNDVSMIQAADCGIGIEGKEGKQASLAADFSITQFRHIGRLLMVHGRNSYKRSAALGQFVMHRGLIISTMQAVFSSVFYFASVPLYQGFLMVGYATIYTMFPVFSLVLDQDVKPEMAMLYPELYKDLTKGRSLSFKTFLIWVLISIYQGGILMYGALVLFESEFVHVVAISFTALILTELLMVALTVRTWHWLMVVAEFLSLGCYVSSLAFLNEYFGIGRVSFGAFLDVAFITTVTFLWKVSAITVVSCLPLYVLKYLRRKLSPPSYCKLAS
Description: co-IP; lysates of HeLa cells stably coexpressing an HA-tagged and a FLAG-tagged P4-ATPase; lysis in 20 mM Hepes pH 7.4, 150 mM NaCl, 1 mM EDTA, 1% Nonidet P-40, 4°C; anti-HA antibody and protein G Dynabeads; blot with anti-HA and anti-DYKDDDDK

Another assay concerns the target T2, ATP9A (UniProt O75110).
T2 sequence: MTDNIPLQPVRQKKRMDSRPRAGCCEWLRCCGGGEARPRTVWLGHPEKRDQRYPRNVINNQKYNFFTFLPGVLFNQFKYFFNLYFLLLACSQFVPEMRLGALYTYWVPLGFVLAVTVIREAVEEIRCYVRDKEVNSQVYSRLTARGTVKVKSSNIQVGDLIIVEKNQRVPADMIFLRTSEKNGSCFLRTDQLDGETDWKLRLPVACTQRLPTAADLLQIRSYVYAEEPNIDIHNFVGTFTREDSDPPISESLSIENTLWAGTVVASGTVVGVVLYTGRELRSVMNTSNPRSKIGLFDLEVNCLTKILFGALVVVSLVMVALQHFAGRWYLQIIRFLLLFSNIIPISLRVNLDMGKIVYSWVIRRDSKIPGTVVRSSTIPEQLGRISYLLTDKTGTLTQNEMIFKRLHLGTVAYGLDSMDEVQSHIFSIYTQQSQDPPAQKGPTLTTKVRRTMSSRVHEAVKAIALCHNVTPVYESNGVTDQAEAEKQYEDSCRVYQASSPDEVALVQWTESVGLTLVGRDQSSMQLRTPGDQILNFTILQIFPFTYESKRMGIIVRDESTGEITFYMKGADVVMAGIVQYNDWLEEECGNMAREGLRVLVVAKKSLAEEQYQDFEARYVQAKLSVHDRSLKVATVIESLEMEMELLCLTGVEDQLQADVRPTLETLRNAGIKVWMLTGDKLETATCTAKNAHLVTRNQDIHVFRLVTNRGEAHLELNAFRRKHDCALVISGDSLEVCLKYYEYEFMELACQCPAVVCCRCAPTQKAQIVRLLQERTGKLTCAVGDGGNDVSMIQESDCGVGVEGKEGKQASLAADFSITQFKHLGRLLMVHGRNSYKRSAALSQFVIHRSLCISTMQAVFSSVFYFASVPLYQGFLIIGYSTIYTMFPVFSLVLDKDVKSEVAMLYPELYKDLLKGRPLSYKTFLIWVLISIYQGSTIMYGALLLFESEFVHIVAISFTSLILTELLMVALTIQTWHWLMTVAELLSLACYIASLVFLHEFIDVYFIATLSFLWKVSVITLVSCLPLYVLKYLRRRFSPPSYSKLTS
Described as above.

Results are given in words; binding and its absence hold for the method and conditions named. Binding seen in cells or lysates may run through a third protein. Some binding calls cover weakened binding; strength is not graded here.

B1: ATP9B (protein, UniProt O43861 1-1147)
chain: MADQIPLYPVRSAAAAAANRKRAAYYSAAGPRPGADRHSRYQLEDESAHLDEMPLMMSEEGFENEESDYHTLPRARIMQRKRGLEWFVCDGWKFLCTSCCGWLINICRRKKELKARTVWLGCPEKCEEKHPRNSIKNQKYNVFTFIPGVLYEQFKFFLNLYFLVISCSQFVPALKIGYLYTYWAPLGFVLAVTMTREAIDEFRRFQRDKEVNSQLYSKLTVRGKVQVKSSDIQVGDLIIVEKNQRIPSDMVFLRTSEKAGSCFIRTDQLDGETDWKLKVAVSCTQQLPALGDLFSISAYVYAQKPQMDIHSFEGTFTREDSDPPIHESLSIENTLWASTIVASGTVIGVVIYTGKETRSVMNTSNPKNKVGLLDLELNRLTKALFLALVALSIVMVTLQGFVGPWYRNLFRFLLLFSYIIPISLRVNLDMGKAVYGWMMMKDENIPGTVVRTSTIPEELGRLVYLLTDKTGTLTQNEMIFKRLHLGTVSYGADTMDEIQSHVRDSYSQMQSQAGGNNTGSTPLRKAQSSAPKVRKSVSSRIHEAVKAIVLCHNVTPVYESRAGVTEETEFAEADQDFSDENRTYQASSPDEVALVQWTESVGLTLVSRDLTSMQLKTPSGQVLSFCILQLFPFTSESKRMGVIVRDESTAEITFYMKGADVAMSPIVQYNDWLEEECGNMAREGLRTLVVAKKALTEEQYQDFESRYTQAKLSMHDRSLKVAAVVESLEREMELLCLTGVEDQLQADVRPTLEMLRNAGIKIWMLTGDKLETATCIAKSSHLVSRTQDIHIFRQVTSRGEAHLELNAFRRKHDCALVISGDSLEVCLKYYEHEFVELACQCPAVVCCRCSPTQKARIVTLLQQHTGRRTCAIGDGGNDVSMIQAADCGIGIEGKEGKQASLAADFSITQFRHIGRLLMVHGRNSYKRSAALGQFVMHRGLIISTMQAVFSSVFYFASVPLYQGFLMVGYATIYTMFPVFSLVLDQDVKPEMAMLYPELYKDLTKGRSLSFKTFLIWVLISIYQGGILMYGALVLFESEFVHVVAISFTALILTELLMVALTVRTWHWLMVVAEFLSLGCYVSSLAFLNEYFGIGRVSFGAFLDVAFITTVTFLWKVSAITVVSCLPLYVLKYLRRKLSPPSYCKLAS
Take B1: the binding entry in the assay with ATP9B and in the assay with ATP9A was “binds” each time.

B2: ATP9A (protein, UniProt O75110 1-1047)
chain: MTDNIPLQPVRQKKRMDSRPRAGCCEWLRCCGGGEARPRTVWLGHPEKRDQRYPRNVINNQKYNFFTFLPGVLFNQFKYFFNLYFLLLACSQFVPEMRLGALYTYWVPLGFVLAVTVIREAVEEIRCYVRDKEVNSQVYSRLTARGTVKVKSSNIQVGDLIIVEKNQRVPADMIFLRTSEKNGSCFLRTDQLDGETDWKLRLPVACTQRLPTAADLLQIRSYVYAEEPNIDIHNFVGTFTREDSDPPISESLSIENTLWAGTVVASGTVVGVVLYTGRELRSVMNTSNPRSKIGLFDLEVNCLTKILFGALVVVSLVMVALQHFAGRWYLQIIRFLLLFSNIIPISLRVNLDMGKIVYSWVIRRDSKIPGTVVRSSTIPEQLGRISYLLTDKTGTLTQNEMIFKRLHLGTVAYGLDSMDEVQSHIFSIYTQQSQDPPAQKGPTLTTKVRRTMSSRVHEAVKAIALCHNVTPVYESNGVTDQAEAEKQYEDSCRVYQASSPDEVALVQWTESVGLTLVGRDQSSMQLRTPGDQILNFTILQIFPFTYESKRMGIIVRDESTGEITFYMKGADVVMAGIVQYNDWLEEECGNMAREGLRVLVVAKKSLAEEQYQDFEARYVQAKLSVHDRSLKVATVIESLEMEMELLCLTGVEDQLQADVRPTLETLRNAGIKVWMLTGDKLETATCTAKNAHLVTRNQDIHVFRLVTNRGEAHLELNAFRRKHDCALVISGDSLEVCLKYYEYEFMELACQCPAVVCCRCAPTQKAQIVRLLQERTGKLTCAVGDGGNDVSMIQESDCGVGVEGKEGKQASLAADFSITQFKHLGRLLMVHGRNSYKRSAALSQFVIHRSLCISTMQAVFSSVFYFASVPLYQGFLIIGYSTIYTMFPVFSLVLDKDVKSEVAMLYPELYKDLLKGRPLSYKTFLIWVLISIYQGSTIMYGALLLFESEFVHIVAISFTSLILTELLMVALTIQTWHWLMTVAELLSLACYIASLVFLHEFIDVYFIATLSFLWKVSVITLVSCLPLYVLKYLRRRFSPPSYSKLTS
B2: the binding result with ATP9B and with ATP9A was “binds” in each case.
